# Experimental data taken from PubChem BioAssay AID504834 (National Center for Advancing Translational Sciences (NCATS), 2011).
# The campaign covered roughly 320,000 compounds. About 22,000 (6.9%) were called active. The shares of active, inactive and inconclusive entries below differ from those in the screen. Calls come from the whole dose curve; as a rule, active = well fitted inhibition curve with a large enough effect; inconclusive = small, poorly fitted or top-dose-only effect, or another doubt; inactive = no such curve, though single readings can be large or run the other way. Where the call is inconclusive, the potency comes from a doubtful curve fit.
# Test: Primary qHTS for delayed death inhibitors of the malarial parasite plastid, 96 hour incubation
# Settings: P. falciparum luciferase reporter growth; series mostly up to 28.7 µM
# How it was run: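 P. falciparum expressing integrated firefly luciferase grown in erythrocytes (2% hematocrit, 0.05% parasitemia final) with compounds for 96 hours at 37 C, 5% CO2. Growth inhibition read as loss of luminescence after adding luciferase detection reagent.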
# Potency is the fitted concentration of half-maximal effect.
row,Structure (SMILES),Potency
1,Cn1c(C(=O)N2CCC(C(N)=O)CC2)cc2cc(Cl)ccc21,"inconclusive: 20.8 µM [inhibitor, partial curve, poor fit]"
2,COc1ccc(S(=O)(=O)N/N=C\c2ccccc2F)cc1,inactive
3,CCOC(=O)CSc1nnc(-c2ccc(OC)cc2OC)o1,"inconclusive: 13.1 µM [inhibitor, single point]"
4,CNc1snc(C)c1C(=O)OCC(=O)c1cc(F)ccc1OC,"inconclusive: 18.5 µM [inhibitor, single point]"
5,Cc1cc(S(=O)(=O)N2CCOCC2)ccc1OCC(=O)N1CCCCC1,inactive
6,O=C(CCCCCN1C(=O)c2ccccc2C1=O)NC1CCCC1,"inconclusive: 18.5 µM [inhibitor, single point]"
7,COc1ccc2c3c(c(=O)oc2c1)C1O[C@](c2ccsc2)(Cc2ccccc21)O3,"inconclusive: 1.35 µM [inhibitor, single point]"
8,CCOc1ccc(CNC(=O)NS(=O)(=O)c2ccc(OC)cc2)cc1,active: 2.94 µM
9,CCOC(=O)C1=NN(c2ccc(OC)cc2)C(c2ccccc2)CC1=O (stereo not drawn),"inconclusive: 10.4 µM [inhibitor, partial curve]"
10,Cc1nc2c(C)cccn2c1/C(O)=C1\C(=O)C(=O)N(CCN(C)C)C1c1ccccc1 (stereo not drawn),inactive
11,COc1cc2c(cc1OC)-c1cc(Nc3ccc(C)cc3)nc(=O)n1CC2,"inconclusive: 0.415 µM [inhibitor, full curve]"
12,COc1ccc(Cl)cc1NC(=S)NC1CCCC1,"inconclusive: 10.4 µM [inhibitor, single point]"
13,COc1ccccc1NC(=O)c1ccc(S(=O)(=O)N2CCC(C)CC2)cc1,"inconclusive: 0.415 µM [inhibitor, full curve]"
14,CC1Cc2ccccc2N1S(=O)(=O)c1cccc(C(=O)N2CCN(c3ncccn3)CC2)c1 (stereo not drawn),"inconclusive: 4.65 µM [inhibitor, partial curve, poor fit]"
15,OCC[n+]1ccc(/C=C/c2c[nH]c3ccccc23)cc1,"inconclusive: 0.522 µM [inhibitor, full curve, poor fit]"
16,CC1(C)CCC(=O)N2CC[C@H]3C[C@H](OC(=O)Nc4ccc5c(c4)OCO5)C[C@@H]1[C@H]32,inactive
17,Cc1cc(C)cc(OCC(=O)Nc2ccc3c(c2)OCO3)c1,"inconclusive: 4.15 µM [inhibitor, single point]"
18,O=C(Nc1nnc(-c2ccccc2)s1)c1ccc(F)cc1,inactive
19,N/C(Cc1ccc([N+](=O)[O-])cc1)=N\OC(=O)C(c1ccccc1)c1ccccc1,"inconclusive: 0.037 µM [inhibitor, full curve, poor fit]"
20,CN(C)S(=O)(=O)c1ccc(C(=O)N2CCCC2c2nc3ccccc3s2)cc1 (stereo not drawn),"inconclusive: 18.5 µM [inhibitor, single point]"
21,CCOC(=O)N1CCN(C(=O)C2CCCN(S(=O)(=O)c3ccc(C)cc3)C2)CC1 (stereo not drawn),"inconclusive: 11.7 µM [inhibitor, single point]"
22,C[C@H]1CCC(=O)N([C@H](CSc2ccc(Br)cc2)Cc2ccccc2)CC1,"inconclusive: 0.37 µM [inhibitor, partial curve, poor fit]"

# 2 of these compounds, set out differently.
row	Structure (SMILES)	Potency
20	CN(C)S(=O)(=O)c1ccc(C(=O)N2CCCC2c2nc3ccccc3s2)cc1 (stereo not drawn)	inconclusive: 18.5 µM [inhibitor, single point]
21	CCOC(=O)N1CCN(C(=O)C2CCCN(S(=O)(=O)c3ccc(C)cc3)C2)CC1 (stereo not drawn)	inconclusive: 11.7 µM [inhibitor, single point]

# Next part.

row,Structure (SMILES),Potency
1,COC(=O)c1ccc(COc2cccc3c2CCN(Cc2cccc(C)c2)C3=O)o1,"inconclusive: 14.7 µM [inhibitor, single point]"
2,COc1ccc(NS(=O)(=O)c2cc(C)ccc2C)cc1,"inconclusive: 4.15 µM [inhibitor, partial curve]"
3,O=C(CC1SC(N2CCCCC2)=NC1=O)Nc1cccc(C(=O)NCc2ccc(F)cc2)c1 (stereo not drawn),"inconclusive: 11.7 µM [inhibitor, single point]"
4,Cc1cc(C)nc(/N=C(\N)N2CCCCC2)n1,"inconclusive: 4.65 µM [inhibitor, single point]"
5,CSCSC1=C(C#N)C(c2ccccc2Cl)C(C(C)=O)=C(C)N1 (stereo not drawn),"inconclusive: 18.5 µM [inhibitor, single point]"
6,CCCOc1ccc(-c2cn3ccccc3n2)cc1,"inconclusive: 4.15 µM [inhibitor, partial curve, poor fit]"
7,CC(C)(C)/C(O)=C/c1nc2ccccc2[nH]c1=O,inactive
8,CCN(CC(=O)NCc1ccc(F)cc1)C(=O)CN1CCN(c2cc(Cl)ccc2C)CC1,"inconclusive: 18.5 µM [inhibitor, single point]"
9,CSc1ccc(CCNC(=O)CCc2nnc3ccc(N4CCCC4)nn23)cc1,active: 9.28 µM
10,O=C1CCc2cc(S(=O)(=O)N3CCCC3C(=O)NC3CCCCCCC3)ccc2N1 (stereo not drawn),"inconclusive: 1.65 µM [inhibitor, full curve]"
11,Cc1ccc(CNC(=O)C(C)OC(=O)c2cccs2)cc1 (stereo not drawn),"inconclusive: 9.28 µM [inhibitor, partial curve, poor fit]"
12,COc1ccc(C)cc1N(CC(=O)N1CCCCCC1)S(C)(=O)=O,"inconclusive: 18.5 µM [inhibitor, single point]"
13,CCCN(CCC)C(=O)c1cc(-c2ccc3c(c2)OCO3)nc2ccccc12,active: 1.65 µM
14,O=[N+]([O-])c1ccc2nc(-c3ccncc3)[nH]c2c1,active: 5.22 µM
15,COc1ccc(-c2cc(C(=O)Nc3c(F)cc(F)cc3Br)no2)cc1,active: 8.28 µM
16,Cn1cc(Br)c(C(=O)NN2C(=O)C3C(C2=O)C2C=CC3C23CC3)n1 (stereo not drawn),"inconclusive: 18.5 µM [inhibitor, single point]"
17,O=C1[C@H]2[C@@H](c3ccc(F)cc3)N3C(=O)N(c4ccc(C(F)(F)F)cc4)C(=O)[C@@]3(Cc3ccccc3)[C@H]2C(=O)N1C1CCCCC1,active: 5.22 µM
18,O=C(c1cccc(N2C(=O)C3CC=CCC3C2=O)c1)N1CCCc2ccccc21 (stereo not drawn),inactive
19,Cc1cccc(N(CC(=O)NC2CCCCC2)C(=O)CCC(=O)Nc2nccs2)c1,inactive
20,O=C1NC(c2ccccc2)(C(F)(F)F)SC2=CCCCCN12 (stereo not drawn),"inconclusive: 2.08 µM [inhibitor, single point]"
21,Cn1ccsc1=NC(=O)c1ccccc1OC(F)F,"inconclusive: 18.5 µM [inhibitor, single point]"
